Values from PubChem BioAssay AID1224826 (NIAID, 2016)
The deposit covers about 17,000 reagents; this is a part drawn at random. Of all reagents, about 1,110 (6.6%) were called active. 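Active means lowered or raised reporter signal; replicate intensities are raw and not normalised per plate.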 Unmarked entries are inactive. Not all columns of the deposit are shown.

Purpose: 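Genes that change LPS-induced Tnf promoter activity in mouse macrophages when knocked down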 (primary screen)
Cells: RAW264.7 G9 macrophages from mouse bearing reporters for p65 (GFP) and the Tnf promoter (mCherry)
Reagents: siRNA pool against mouse genes, 100 nM
Time to read-out: 16 h of LPS stimulation, after 2 days of siRNA transfection
Treatment: bacterial lipopolysaccharide (Salmonella minnesota R595), 10 ng/ml
Measurement: 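Imaged Tnf reporter mCherry in nuclei, minus background, normalised per plate to the median and expressed as robust z-scores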
Direction: Tnf reporter robust z-score: higher = stronger Tnf promoter reporter signal after LPS
Active means: 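Called active when robust z-score is at most -1.3, matching the median of the Tlr4 knock-down control, or over 3; control wells and wells with under 50 cells never active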
Calls: active = Tnf reporter clearly lowered or raised; inactive = no clear change in Tnf reporter

Scn7a — Tnf reporter robust z-score: 0.1; fewer than 50 cells in well: enough cells in well
Zfp281 — Tnf reporter robust z-score: -0.69; fewer than 50 cells in well: enough cells in well
Atic — Tnf reporter robust z-score: -0.55; fewer than 50 cells in well: enough cells in well
Chchd4 — Tnf reporter robust z-score: -0.42; fewer than 50 cells in well: enough cells in well
Stac2 — Tnf reporter robust z-score: 0.73; fewer than 50 cells in well: enough cells in well
Kir3dl1 — Tnf reporter robust z-score: -0.77; fewer than 50 cells in well: enough cells in well
Slc26a3 — Tnf reporter robust z-score: 0.21; fewer than 50 cells in well: enough cells in well
Ak9 — Tnf reporter robust z-score: -0.16; fewer than 50 cells in well: enough cells in well
Hspbap1 — Tnf reporter robust z-score: -0.06; fewer than 50 cells in well: enough cells in well
Wnt9a — Tnf reporter robust z-score: -0.93; fewer than 50 cells in well: enough cells in well
Slfn1 — fewer than 50 cells in well: fewer than 50 cells per well; well left out of calls
Tmx1 — Tnf reporter robust z-score: 0; fewer than 50 cells in well: enough cells in well
Atp10b — Tnf reporter robust z-score: -0.12; fewer than 50 cells in well: enough cells in well
Tcerg1l — Tnf reporter robust z-score: 0.55; fewer than 50 cells in well: enough cells in well
Traf4 — Tnf reporter robust z-score: 0.29; fewer than 50 cells in well: enough cells in well
Hook2 — Tnf reporter robust z-score: -0.11; fewer than 50 cells in well: enough cells in well
Itga10 — Tnf reporter robust z-score: -0.61; fewer than 50 cells in well: enough cells in well
Atxn10 — Tnf reporter robust z-score: 1.23; fewer than 50 cells in well: enough cells in well
Rpl22l1 — fewer than 50 cells in well: fewer than 50 cells per well; well left out of calls
Plxnb3 — Tnf reporter robust z-score: -0.26; fewer than 50 cells in well: enough cells in well
Hoxb6 — Tnf reporter robust z-score: -0.52; fewer than 50 cells in well: enough cells in well

Reprinted from above, 3 entries:
Itga10 — Tnf reporter robust z-score: -0.61; fewer than 50 cells in well: enough cells in well
Atxn10 — Tnf reporter robust z-score: 1.23; fewer than 50 cells in well: enough cells in well
Rpl22l1 — fewer than 50 cells in well: fewer than 50 cells per well; well left out of calls
